Laboratory results taken from PubChem BioAssay AID624297 (National Center for Advancing Translational Sciences (NCATS), 2012).
Hit rate of the full screen: of about 340,000 compounds, about 6,200 (1.8%) were called active. The inconclusive results got no clear call from the source; some entries with a clear call stand among them for comparison. Calls come from the whole dose curve; as a rule, active = well fitted activation curve with a large enough effect; inconclusive = small, poorly fitted or top-dose-only effect; inactive = no such curve, though single readings can be large or run the other way. Where the call is inconclusive, the potency comes from a doubtful curve fit.

experiment: A quantitative high throughput screen for small molecules that induce DNA re-replication in SW480 colon adenocarcinoma cells.; note: nearly all actives have a fitted effect of over 55% in size; for re-replication activation: % of control where 0% means no effect; settings: Hoechst DNA content imaging, 48 h; re-replication activation: at 46.1 µM (top of the series) unless noted
Summary of the method: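 250 cells/well; 23 nL cpd via pin tool; 48 hr, 37 C, 5% CO2; Hoechst 40 min; imager read of total nuclear intensity, ex 405/em 500-530 nm.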
Potency is the fitted concentration of half-maximal effect.

SMILES | Potency | re-replication activation
CCN(CC)c1ccc(NC(=O)c2ccc3c(c2)c(C)c(C)n3C)cc1 | inconclusive: 23.1 µM [activator, single point] | 
Cc1cc([N+](=O)[O-])ccc1NC(=S)NC1CCCC1 | inactive | 
CCN1CCN(Cc2ccc(NC(=O)c3cc(NC(=O)C(=O)c4c[nH]c5ccccc45)cc(OC)c3)cc2C(F)(F)F)CC1 | inconclusive: 25.9 µM [activator, partial curve, poor fit] | 
CC(=O)Nc1ccc(/C=C/C(=O)c2ccc3c(c2)OCCO3)cc1 | inconclusive: 23.1 µM [activator, single point] | 
Cc1ccc2nc(NCCCO)nc(-c3ccccc3)c2c1 | inconclusive: 29.1 µM [activator, single point] | 
O=S(=O)(NCC(c1ccco1)N1CCc2ccccc21)c1ccccc1 (configuration not stated) | inactive | 
CSc1ncc(C(=O)Nc2ccc(Br)cn2)c(C)n1 | inconclusive: 23.1 µM [activator, single point] | 
COc1ccc(C(=O)COc2ccccc2C(=O)Nc2ccccc2)cc1 |  | inconclusive: 148% [activator]
CCCS(=O)(=O)c1nc(C)cc(C)c1S(C)(=O)=O | inactive | 
S=C(NCCCn1ccnc1)NC1CCCCC1 | inconclusive: 20.6 µM [activator, single point] | 
N=c1c(C(=O)NC2CCCCC2)cc2c(=O)n3ccccc3nc2n1Cc1ccc(F)cc1 |  | inconclusive: 4.7% [activator]
CCOc1cc(N2CCOCC2)c(OCC)cc1NC(=O)c1ccc2ccccc2n1 | inconclusive: 32.6 µM [activator, partial curve, poor fit] | 
Cc1cc(C)nc(NC(=NCCc2c[nH]c3ccccc23)NC(=O)Nc2ccccc2)n1 | inconclusive: 16.4 µM [activator, partial curve, poor fit] | 
O=C(Nc1ccc(S(=O)(=O)N2CCCCC2)cc1)c1cccnc1Cl | inconclusive: 29.1 µM [activator, partial curve, poor fit] | 
CCOc1ccc(N(CC(=O)Nc2ccc(C)c(C)c2)S(=O)(=O)c2c(C)noc2C)cc1 | inconclusive: 29.1 µM [activator, single point] | 
O=C1NC(c2ccc(Br)cc2)Nc2ccccc21 (configuration not stated) | inconclusive: 29.1 µM [activator, single point] | 
CS(=O)(=O)N1N=C(c2ccccc2)CC1c1ccc2nccnc2c1 (configuration not stated) | inactive | 
CC(=O)N(C1=C(Cl)C(=O)c2ccccc2C1=O)C1CCCCC1 | inconclusive: 2.59 µM [activator, full curve] | 
CC(NC(=O)c1cccs1)C(S)c1ccccc1 (configuration not stated) |  | inactive: -40.8% [at 1.84 µM]
COCCn1cnc2c(c1=O)c1nc3ccccc3nc1n2/N=C/c1cccc(OC)c1 | inconclusive: 23.1 µM [activator, single point] | 
Cc1ccc(S(=O)(=O)N2CCN(C(=O)CN3C(=O)c4ccc([N+](=O)[O-])cc4C3=O)CC2)c(C)c1 | inactive | 

Grouped by structure: the compounds so far containing an NH in an aromatic ring.
SMILES | Potency | re-replication activation
CCN1CCN(Cc2ccc(NC(=O)c3cc(NC(=O)C(=O)c4c[nH]c5ccccc45)cc(OC)c3)cc2C(F)(F)F)CC1 | inconclusive: 25.9 µM [activator, partial curve, poor fit] | 
Cc1cc(C)nc(NC(=NCCc2c[nH]c3ccccc23)NC(=O)Nc2ccccc2)n1 | inconclusive: 16.4 µM [activator, partial curve, poor fit] | 

Additional structures:

SMILES | Potency | re-replication activation
COc1ccc(CCn2c(=N)c(C(=O)NCCN3CCOCC3)cc3c(=O)n4cccc(C)c4nc32)cc1OC | active: 16.4 µM | 
COc1ccc(CN2CCNC(=O)C2CC(=O)NCCc2nc(C)c(C)s2)cc1C (configuration not stated) | inconclusive: 29.1 µM [activator, single point] | 
COc1ccccc1C1=NOC(COc2ccc3c(C)cc(=O)oc3c2)C1 (configuration not stated) | active: 8.2 µM | 
CC(=O)Nc1ccc(-c2csc(NC(=O)Cc3cccc(F)c3)n2)cc1 | inconclusive: 0.82 µM [activator, full curve, poor fit] | 
Cc1c(Cl)cccc1Nc1nc(N)nc(CSc2ncccn2)n1 | inconclusive: 29.1 µM [activator, single point] | 
COc1ccc(S(=O)(=O)N(C)C[C@H]2Oc3ccc(NS(=O)(=O)c4ccccc4)cc3CC(=O)N([C@H](C)CO)C[C@@H]2C)cc1 | inconclusive: 6.51 µM [activator, single point] | 
CCc1n[nH]c(=S)n1/N=C/c1ccc(N(C)c2ccccc2)cc1 | inactive | 
NC(=O)c1ccccc1OCC(=O)N1CCCC1c1ccc2c(c1)OCCCO2 (configuration not stated) | inconclusive: 1.84 µM [activator, partial curve, poor fit] | 
CC(C)c1ccc(NC(=O)[C@@H](NC(=O)N2CC(=O)Nc3ccccc32)C(C)C)cc1 | inconclusive: 9.2 µM [activator, partial curve, poor fit] | 
O=C(NCC(c1ccco1)N1CCN(c2ccc(F)cc2)CC1)c1ccc2c(c1)OCO2 (configuration not stated) | inconclusive: 1.03 µM [activator, partial curve, poor fit] | 
CCCNS(=O)(=O)c1ccc(CCC(=O)N2CCN(c3ccc(OC)cc3)CC2)cc1 | inactive | 
C/C(=N/NC(=O)CNC(=O)c1ccccn1)c1ccccc1 | inconclusive: 29.1 µM [activator, single point] | 
CCn1c(CNC(=O)COc2ccc(C(C)C)cc2)nnc1SCC(=O)Nc1ccc(F)cc1 | inactive | 
Cc1ccc(C2NNC(=O)C2NC(=O)c2ccccc2)cc1 (configuration not stated) | inconclusive: 2.91 µM [activator, single point] | 
O=C1OCCN1C(=O)[C@H]1[C@H](c2ccc([N+](=O)[O-])cc2)C(c2ccc(F)cc2)=NN1c1ccccc1 | inactive | 
COc1ccc(N2CCN(C(=O)CNC(=O)Cc3ccc(Cl)cc3)CC2)cc1 | inconclusive: 18.4 µM [activator, single point] | 
O=Cc1ccc(-c2nc3ccccc3s2)o1 | inactive | 
CCOc1ccc(CCNC(=O)CS(=O)Cc2nc(-c3ccccc3Cl)oc2C)cc1OCC (configuration not stated) | inconclusive: 0.461 µM [activator, full curve, poor fit] | 
COCCNC(=O)c1c(N)n(CCC2=CCCCC2)c2nc3ccccc3nc12 | active: 20.6 µM | 
CN1C(=O)/C(=C/c2cc(N=Nc3ccccc3)ccc2O)SC1=S | inconclusive: 20.6 µM [activator, single point] | 
Cn1c(=O)c2[nH]c(COc3ccc(C(C)(C)C)cc3)nc2n(C)c1=O | inconclusive: 32.6 µM [activator, partial curve, poor fit] | 
